Results deposited as PubChem BioAssay AID1159618 (Peter MacCallum Cancer Centre, 2016)
In all, the deposit lists 153 reagents; shown is an unselected part. 111 of them (73%) count as active. 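Migration not corrected for cell number; some knock-downs also lowered nuclei counts, so reduced closure may partly reflect fewer cells.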 Not all columns of the deposit are shown. The record does not give: the time to read-out.

- Test: 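Contrast migration regulators of blood versus lymphatic endothelial cells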 (follow-up of hits)
- System: human HMBEC blood microvascular and HDLEC dermal lymphatic endothelial cells
- Reagents: siRNA pool against human genes, 40 nM
- Measured: 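Scratch wounds imaged automatically; migrated area scaled to mock-transfected mean and averaged across two replicates, with per-well nuclei counts recorded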
- Reading the numbers: migration vs mock, HMBEC and migration vs mock, HDLEC: higher = more migration into the scratch
- Call rule: 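Called impaired when migration drops below 0.65 of mock in HMBEC, HDLEC or both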
- Calls: active = migration impaired; inactive = no change

How did the screen score GPR84?
cell type with impaired migration: impaired in both blood and lymphatic cells; migration vs mock, HMBEC: 0.0388; migration vs mock, HDLEC: 0.0314; Call: active

For RTL8C, what does the deposit list?
cell type with impaired migration: no change in either cell type; migration vs mock, HMBEC: 0.776; migration vs mock, HDLEC: 0.87; Call: inactive

What did the screen give for HPDL?
cell type with impaired migration: impaired in both blood and lymphatic cells; migration vs mock, HMBEC: 0.469; migration vs mock, HDLEC: 0.321; Call: active

With ABCA2, how do the results read?
cell type with impaired migration: impaired in both blood and lymphatic cells; migration vs mock, HMBEC: 0.556; migration vs mock, HDLEC: 0.611; Call: active

Which result is listed for SLC31A2?
cell type with impaired migration: impaired only in lymphatic endothelial cells; migration vs mock, HMBEC: 0.7; migration vs mock, HDLEC: 0.266; Call: active

What did the screen give for AXL?
cell type with impaired migration: no change in either cell type; migration vs mock, HMBEC: 0.762; migration vs mock, HDLEC: 0.938; Call: inactive

What is on record for PI4KB?
cell type with impaired migration: impaired in both blood and lymphatic cells; migration vs mock, HMBEC: 0.553; migration vs mock, HDLEC: 0.405; Call: active

For CHST8, what does the deposit list?
cell type with impaired migration: impaired in both blood and lymphatic cells; migration vs mock, HMBEC: 0.646; migration vs mock, HDLEC: 0.65; Call: active

For PSEN2, what was measured?
cell type with impaired migration: impaired in both blood and lymphatic cells; migration vs mock, HMBEC: 0.569; migration vs mock, HDLEC: 0.504; Call: active

For SMURF2, what was measured?
cell type with impaired migration: impaired in both blood and lymphatic cells; migration vs mock, HMBEC: 0.548; migration vs mock, HDLEC: 0.529; Call: active

With GDF3, what was measured?
cell type with impaired migration: impaired in both blood and lymphatic cells; migration vs mock, HMBEC: 0.103; migration vs mock, HDLEC: 0.163; Call: active

With PTH2, how do the results read?
cell type with impaired migration: impaired in both blood and lymphatic cells; migration vs mock, HMBEC: 0.409; migration vs mock, HDLEC: 0.368; Call: active
